pEC50: −log10 of the molar value.
System: Babesia duncani
Assay: Propidium iodide-based in vitro dose-response assay, B. duncani-infected red blood cells, 384-well plates
Type: cell-based
Settings: Erythrocyte, Table 1, two replicate 9-point dilution experiments, combined data
Protocol: Frozen stocks of B. duncani were provided by the Ben Mamoun lab at Yale University. Culture maintenance was undertaken as described by Singh et al^18 with the following adaptations: Media, completed DMEM/F12 (cDMEM; 20% heat-inactivated fetal bovine serum (Sigma-Aldrich catalogue #12,306 C-500ML), 1 x HT media supplement (Sigma-Aldrich catalogue # H0137-10VL), 1 x L-glutamine (Gibco, catalogue # 25030–081), 1 x antibiotic-antimycotic (Gibco catalogue #15240–062), and 1 x gentamicin (Gibco catalogue #15710–072)), was changed every other day and cultures were kept in a modular incubator gassed with 2% O2, 5% CO2, 93% N2 at 37°C. […] One day before the start, the media was changed, and parasitemia was assessed by light microscopy examination of Giemsa-stained thin blood smears with a minimum of 500 red blood cells counted.
Fresh A + blood was washed three times, and a stock 10% hematocrit (HCT) solution of uninfected red cells in completed F12/DMEM media (cDMEM) was created. […] After 24 hours, the plate was read using a Synergy H1 (BioTek, Winooski, VT) with excitation = 535 nm, emission = 615 nm, sensitivity = 150, and readings taken from the bottom of the wells. Blood smears were made from select undiluted starting wells and stained with Giemsa, and parasitemia was calculated manually from a minimum of 1,000 counted red blood cells. […]

pEC50: 5.96
Structure (SMILES): O=C(CCCCCCC(=O)Nc1ccccc1)NO [Vorinostat]
